Measured values taken from publication PMC10264389.
Results are given in words; binding and its absence hold for the method and conditions named. In cells and extracts the contact can be indirect. A result given as binding can be weak or reduced; the word gives no strength. Blank lines part the entries; values can stand above or below the molecule they belong to.

The chains behind the UniProt entries cited, without tags or fusion partners. Where a name states a change or a piece, a line headed by the entry shows the natural chain unless it says otherwise.
UniProt Q9H1E5: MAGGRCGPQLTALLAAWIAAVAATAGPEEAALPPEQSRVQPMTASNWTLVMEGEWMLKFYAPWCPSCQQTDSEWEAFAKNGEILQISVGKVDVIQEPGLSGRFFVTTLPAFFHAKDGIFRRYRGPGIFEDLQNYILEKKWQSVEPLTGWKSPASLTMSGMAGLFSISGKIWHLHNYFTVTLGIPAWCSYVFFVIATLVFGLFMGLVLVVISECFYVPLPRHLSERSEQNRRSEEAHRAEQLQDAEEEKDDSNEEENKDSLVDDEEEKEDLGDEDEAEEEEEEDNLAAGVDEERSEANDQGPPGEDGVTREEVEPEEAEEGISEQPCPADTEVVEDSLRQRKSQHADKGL

Assays:
HALO-NESPRIN3α = biological target: T1, HALO-NESPRIN3α (UniProt Q4FZC9); experiment: co-IP; HEK293 co-transfected with HALO-NESPRIN3α, GFP-SUN1 and TMX4-V5 or TMX4C67A-V5; HALO-NESPRIN3α isolated with HALO-Trap agarose beads, 2 h at 4 °C; non-reducing and reducing gels; western blot with anti-V5 and anti-HALO
T1 sequence: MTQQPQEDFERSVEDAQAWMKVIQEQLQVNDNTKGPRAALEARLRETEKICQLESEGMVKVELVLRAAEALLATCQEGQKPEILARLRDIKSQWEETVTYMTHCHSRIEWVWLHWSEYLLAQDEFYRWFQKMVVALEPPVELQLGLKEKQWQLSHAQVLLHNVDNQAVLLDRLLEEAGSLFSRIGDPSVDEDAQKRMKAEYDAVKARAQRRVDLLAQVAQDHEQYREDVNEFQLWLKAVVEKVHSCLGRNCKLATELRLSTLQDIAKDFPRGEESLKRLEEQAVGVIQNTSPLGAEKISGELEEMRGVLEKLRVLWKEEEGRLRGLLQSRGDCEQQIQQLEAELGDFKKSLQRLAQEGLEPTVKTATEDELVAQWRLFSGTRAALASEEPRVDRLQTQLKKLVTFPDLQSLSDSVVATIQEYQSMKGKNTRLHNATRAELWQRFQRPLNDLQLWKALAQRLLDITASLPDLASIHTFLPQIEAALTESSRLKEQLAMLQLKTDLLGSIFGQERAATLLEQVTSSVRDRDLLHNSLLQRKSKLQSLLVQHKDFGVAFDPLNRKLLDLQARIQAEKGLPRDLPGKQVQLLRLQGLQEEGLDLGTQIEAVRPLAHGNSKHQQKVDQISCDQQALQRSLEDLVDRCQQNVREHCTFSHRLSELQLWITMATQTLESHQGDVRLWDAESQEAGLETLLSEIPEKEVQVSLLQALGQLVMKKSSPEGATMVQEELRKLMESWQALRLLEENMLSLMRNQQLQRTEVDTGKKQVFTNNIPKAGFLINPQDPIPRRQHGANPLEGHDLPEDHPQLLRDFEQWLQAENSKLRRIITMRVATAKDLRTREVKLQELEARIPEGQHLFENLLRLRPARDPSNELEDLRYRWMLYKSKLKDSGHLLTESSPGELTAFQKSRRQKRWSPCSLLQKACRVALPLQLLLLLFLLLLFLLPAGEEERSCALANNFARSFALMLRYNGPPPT

TMX4_(C67A)-V5 = TMX4_(C67A)-V5 (UniProt Q9H1E5); experiment: co-IP; HEK293 co-transfected with HALO-NESPRIN3α, GFP-SUN1 and TMX4-V5 or TMX4C67A-V5; immunoisolation from lysates with anti-V5 antibody; non-reducing gel; western blot with anti-V5, anti-HALO and anti-GFP; mixed disulfides

binding (HALO-NESPRIN3α): binds
Molecule: TMX4_(C67A)-V5 (from UniProt Q9H1E5) (enzyme)

binding (TMX4_(C67A)-V5): binds
B1: HALO-NESPRIN3α (protein, UniProt Q4FZC9 1-975)
chain: T1 sequence
